The numbers were not newly measured in US9867801B2, “Amorphous solid dispersion comprising taxane, tablet comprising the same, and method for preparing the same” (HANMI PHARM. CO., LTD., priority 2014, dated 2018), which cites them from elsewhere.

Converted amounts (≈) assume the structure as drawn.

Turning to `CC(=O)O[C@H]1C(=O)[C@@]2(C)[C@H]([C@H](OC(=O)c3ccccc3)[C@]3(O)C[C@H](OC(=O)[C@H](O)[C@@H](NC(=O)c4ccccc4)c4ccccc4)C(C)=C1C3(C)C)[C@]1(OC(C)=O)CO[C@@H]1C[C@@H]2O` [paclitaxel], the water solubility was ~10 µg/mL (≈ 11.7 µM).
